Structures can show the parent of a compound that is named as a salt. This is one part of the list. The calls rarely recur for the same compound in another form.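 Kinases, fused to nanoluciferase, were expressed in K562 cells; luminescence was measured every 4 h from 2 to 18 h as percent of control (DMSO = 100%, positive control = 0%). A time point is decreased if signal falls significantly (2 sigma). Hits were called by the authors by a rule that is not shown; the count of time points alone does not decide it.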
Each molecule was assayed against EGFR_G719S_T790M (UniProt P00533) (assay: number of time points (of 5) at which kinase-Nluc abundance scored as decreased, DMSO-normalised (count); higher = more persistent destabilization). Conditions: K562; 2-18 h.
For `O=C(Nc1ccc(Cl)cc1)C1CCCN(C(=O)c2cccc(-c3ccco3)c2)C1` (stereo unspecified) (2.5 µM), the “number of time points” value was 0.
For `CN(C)Cc1cccc(N=C(c2ccccc2)c2c(O)[nH]c3cc(C(=O)N(C)C)ccc23)c1` (10 µM), the “number of time points” value was 0.
For `OCCN(CCO)c1ccc(C(c2ccc(Cl)cc2)c2ccc(N(CCO)CCO)cc2)cc1` (10 µM), the “number of time points” value was 1.
For `CCOc1ccccc1C=C1C(=O)Nc2ccccc21` (10 µM), the “number of time points” value was 1.
For `COc1ncc(Nc2ncc([C@@H](C)N3CCN(S(C)(=O)=O)CC3)cc2-c2nc(C)nc(N)n2)cc1F` (10 µM), the “number of time points” value was 0.
In the case of `O=C(CO)N1CCC(c2n[nH]c(-c3ccc(Cl)cc3)c2-c2ccncn2)CC1` (10 µM), the “number of time points” value is reported as 0.
In the case of `Cn1ncc(Cl)c1-c1cc(C(=O)N[C@H](CN)Cc2ccc(F)c(F)c2)sc1Cl` (10 µM), the “number of time points” value is reported as 0.
`O=c1ccc2ccc(O)c(O)c2o1` [Daphnetin] (10 µM) was tested, and the “number of time points” value was 0.
`O=C(Nc1ccc(Cl)c(Cl)c1)Nc1ccc2nnsc2c1` (10 µM) was tested, and the “number of time points” value was 0.
For `O=C(O)c1cc(O)c2c(c1)[C@@H]([C@H]1c3cc(C(=O)O)cc(O)c3C(=O)c3c(O[C@@H]4O[C@H](CO)[C@@H](O)[C@H](O)[C@H]4O)cccc31)c1cccc(O[C@@H]3O[C@H](CO)[C@@H](O)[C@H](O)[C@H]3O)c1C2=O` [Sennoside B] (2.5 µM), the “number of time points” value was 0.
With `O=c1nc(N2CCOCC2)oc2c(-c3cccc4c3sc3ccccc34)cccc12` (10 µM) the “number of time points” value was 0.
In the case of `O=C(Nc1cccc(-c2nncn2C2CC2)c1)c1cc(-n2cnc(C3CC3)c2)ccn1` (10 µM), the “number of time points” value is reported as 0.
With `CSc1ccc(CN2CCCC(Nc3ccc4[nH]ncc4c3)C2)cc1` (stereo unspecified) [Rho-Kinase-IN-1] (10 µM) the “number of time points” value was 0.
For `Oc1ccccc1C(=S)N1CCCC1` (10 µM), the “number of time points” value was 0.
`COC(=O)N[C@@H](C)CNc1nccc(-c2cn(C(C)C)nc2-c2cc(Cl)cc(NS(C)(=O)=O)c2F)n1` [Encorafenib] (10 µM) was tested, and the “number of time points” value was 0.
With `C=CS(=O)(=O)c1ccc(Nc2nc(OCC3CCCCC3)c3[nH]cnc3n2)cc1` (2.5 µM) the “number of time points” value was 0.
In the case of `O=c1[nH]ccc2cc(OC3CCNCC3)ccc12` (10 µM), the “number of time points” value is reported as 0.

What follows are molecules tested against EGFR_L718V (UniProt P00533) in the same assay as above. Conditions: K562; 2-18 h.
For `O=C1NC(=O)C(c2cn(-c3ccccc3)nc2-c2ccc(F)cc2)N1` (stereo unspecified) (10 µM), the “number of time points” value was 0.
`O=[N+]([O-])c1ccc(Sc2cccc[n+]2[O-])c2nonc12` (2.5 µM) was tested, and the “number of time points” value was 0.
For `COc1nc(-c2ccnc(NC(=O)C3CC3)c2)sc1C(N)=O` [GSK-3β inhibitor 2] (10 µM), the “number of time points” value was 0.
`CCN1/C(=C/C(C)=O)Sc2ccc(OC)cc21` (10 µM) was tested, and the “number of time points” value was 1.
`Nc1cccc(S(=O)(=O)N2CCCN(S(=O)(=O)c3ccc4c(c3)OCCO4)CC2)c1` (10 µM) was tested, and the “number of time points” value was 0.
`Nc1ncc(-c2ccc(C(=O)N3CCNCC3)cc2)nc1-c1ccc(C(F)(F)F)cc1` (10 µM) was tested, and the “number of time points” value was 0.
With `CC[C@H](Nc1ncnc2[nH]cnc12)c1oc2ccccc2c(=O)c1-c1cccc(F)c1` [Tenalisib] (10 µM) the “number of time points” value was 0.
For `CC(C)(O)[C@@H]1CC[C@](C)([C@H]2[C@@H](O)C[C@@]3(C)[C@@H]4C[C@H](O[C@@H]5O[C@H](CO)[C@@H](O)[C@H](O)[C@H]5O)[C@H]5C(C)(C)[C@@H](O[C@@H]6OC[C@@H](O)[C@H](O)[C@H]6O[C@@H]6O[C@H](CO)[C@@H](O)[C@H](O)[C@H]6O)CC[C@@]56C[C@@]46CC[C@]23C)O1` [Astragaloside VI] (10 µM), the “number of time points” value was 0.
In the case of `CC(=O)Nc1nc2ccc(-c3cnc(C)c(NC(=O)OC4CCCCC4)c3)cc2s1` (10 µM), the “number of time points” value is reported as 0.
With `COc1ccccc1/C=C1\C(=O)Nc2ccccc21` (10 µM) the “number of time points” value was 0.
With `CC1(N)CCN(c2cnc3c(-c4cccc(Cl)c4Cl)[nH]nc3n2)CC1` (2.5 µM) the “number of time points” value was 0.
In the case of `CC(C)C[C@H](NC(=O)[C@H](CCCCN)NC(=O)[C@H](CO)NC(=O)[C@@H](N)CC(C)C)C(N)=O` [LSKL, Inhibitor of Thrombospondin (TSP-1) (TFA)] (10 µM), the “number of time points” value is reported as 0.
`CN1CC[C@H](c2c(O)cc(O)c3c(=O)cc(-c4ccc(C(F)(F)F)cc4Cl)oc23)[C@H]1CO` [(2S,3R)-Voruciclib (hydrochloride)] (2.5 µM) was tested, and the “number of time points” value was 0.
In the case of `C[C@H]1[C@H](OC(=O)CCC(=O)O)O[C@@H]2O[C@@]3(C)CC[C@H]4[C@H](C)CC[C@@H]1[C@@]24OO3` [Artesunate] (2.5 µM), the “number of time points” value is reported as 0.
With `c1ccc(-c2nn3c(c2-c2ccnc4cc(OCCN5CCOCC5)ccc24)CCC3)nc1` (10 µM) the “number of time points” value was 0.
With `COc1cc(N2CCC(N(C)C)CC2)ccc1Nc1ncc(Cl)c(Nc2ccccc2P(C)(C)=O)n1` (2.5 µM) the “number of time points” value was 0.
In the case of `Cc1ccc(-c2ncn(-c3ccc(Nc4nccc(-c5cccc(N6CCOCC6)c5)n4)cc3)n2)cn1` (10 µM), the “number of time points” value is reported as 0.
With `CC[C@@H]1[C@H](F)C(=O)N[C@@H]1COc1nccc2cc(C(N)=O)c(OC)cc12` (10 µM) the “number of time points” value was 0.
With `O=C1NC(=O)/C(=C/c2ccc(-c3ccc(F)cc3O)o2)S1` (10 µM) the “number of time points” value was 0.
`Cc1cc(Nc2cc(CN3CCOCC3)c3nc(C)c(Cc4ccc(Cl)cc4F)n3n2)n[nH]1` [Gandotinib] (2.5 µM) was tested, and the “number of time points” value was 0.
In the case of `CN(C)C(=O)c1ccc(S(=O)(=O)c2ccc(NC(=O)[C@@](C)(O)C(F)(F)F)c(Cl)c2)cc1` (10 µM), the “number of time points” value is reported as 0.
With `CCc1cccc(CC)c1NC(=O)c1nn(C)c2c1CCc1cnc(Nc3ccc(C(=O)NC4CCN(C)CC4)cc3OC(F)(F)F)nc1-2` (2 µM) the “number of time points” value was 0.
For `O=C(Nc1ccc(Cl)cc1)C1CCCN(C(=O)c2cccc(-c3ccco3)c2)C1` (stereo unspecified) (2.5 µM), the “number of time points” value was 0.
For `CN(C)Cc1cccc(N=C(c2ccccc2)c2c(O)[nH]c3cc(C(=O)N(C)C)ccc23)c1` (10 µM), the “number of time points” value was 0.
For `OCCN(CCO)c1ccc(C(c2ccc(Cl)cc2)c2ccc(N(CCO)CCO)cc2)cc1` (10 µM), the “number of time points” value was 0.
In the case of `CCOc1ccccc1C=C1C(=O)Nc2ccccc21` (10 µM), the “number of time points” value is reported as 0.
For `COc1ncc(Nc2ncc([C@@H](C)N3CCN(S(C)(=O)=O)CC3)cc2-c2nc(C)nc(N)n2)cc1F` (10 µM), the “number of time points” value was 0.
For `O=C(CO)N1CCC(c2n[nH]c(-c3ccc(Cl)cc3)c2-c2ccncn2)CC1` (10 µM), the “number of time points” value was 0.
With `Cn1ncc(Cl)c1-c1cc(C(=O)N[C@H](CN)Cc2ccc(F)c(F)c2)sc1Cl` (10 µM) the “number of time points” value was 0.
`O=c1ccc2ccc(O)c(O)c2o1` [Daphnetin] (10 µM) was tested, and the “number of time points” value was 0.
`O=C(Nc1ccc(Cl)c(Cl)c1)Nc1ccc2nnsc2c1` (10 µM) was tested, and the “number of time points” value was 0.
With `O=C(O)c1cc(O)c2c(c1)[C@@H]([C@H]1c3cc(C(=O)O)cc(O)c3C(=O)c3c(O[C@@H]4O[C@H](CO)[C@@H](O)[C@H](O)[C@H]4O)cccc31)c1cccc(O[C@@H]3O[C@H](CO)[C@@H](O)[C@H](O)[C@H]3O)c1C2=O` [Sennoside B] (2.5 µM) the “number of time points” value was 0.
`O=c1nc(N2CCOCC2)oc2c(-c3cccc4c3sc3ccccc34)cccc12` (10 µM) was tested, and the “number of time points” value was 0.
With `O=C(Nc1cccc(-c2nncn2C2CC2)c1)c1cc(-n2cnc(C3CC3)c2)ccn1` (10 µM) the “number of time points” value was 0.
In the case of `CSc1ccc(CN2CCCC(Nc3ccc4[nH]ncc4c3)C2)cc1` (stereo unspecified) [Rho-Kinase-IN-1] (10 µM), the “number of time points” value is reported as 0.
`Oc1ccccc1C(=S)N1CCCC1` (10 µM) was tested, and the “number of time points” value was 0.
With `COC(=O)N[C@@H](C)CNc1nccc(-c2cn(C(C)C)nc2-c2cc(Cl)cc(NS(C)(=O)=O)c2F)n1` [Encorafenib] (10 µM) the “number of time points” value was 0.
In the case of `C=CS(=O)(=O)c1ccc(Nc2nc(OCC3CCCCC3)c3[nH]cnc3n2)cc1` (2.5 µM), the “number of time points” value is reported as 0.
In the case of `O=c1[nH]ccc2cc(OC3CCNCC3)ccc12` (10 µM), the “number of time points” value is reported as 0.

— the supplement of paper PMC12823440, “Inhibitors supercharge kinase turnover through native proteolytic circuits” (Nature, 2025)
